Results deposited as PubChem BioAssay AID504791 (Drosophila RNAi Screening Center, 2011)

- Assay: 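Genes whose knock-down strengthens or weakens small-RNA reporter silencing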 (primary screen)
- System: Drosophila S2-derived reporter cells
- Reagents: long dsRNA against Drosophila genes, about 150-250 ng dsRNA per well (siRNA assay); about 80-120 ng (miRNA assay)
- Duration: about 5 days (siRNA assay); about 4 days (miRNA assay)
- Challenge: copper sulfate induction of reporters: 25 µM (siRNA assay); 200 mM stated (miRNA assay), 1-2 days before reading
- Measurement: 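Per-well ratio of Renilla over firefly light, expressed relative to that plate's average ratio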
- Units: stable assay Renilla, run 1 in luminescence; stable assay firefly, run 1 in luminescence
- Rule for the call: 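a well was a first-pass pick when its plate-scaled ratio rose above 1.5 (siRNA assay) or 1.6 (miRNA assay), or dropped below 0.6; a gene counted only if two separate dsRNAs agreed on retest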
The screen tested about 23,000 reagents; shown is an unselected part of those with a known target gene and a result. Of all reagents, 199 (0.86%) are marked active. 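Plate-scaled ratios behind the calls are not deposited; printed light signals are raw; many rows marked increased or decreased are still called inactive.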 No sequences are given here. Not stated in the record: the direction of the score.

With knock-down of CG31776 [DRSC00716], the screen gave stable assay Renilla, run 1 = 7471; stable assay firefly, run 1 = 4.47e5; inactive.
Depletion of CG14072 [DRSC02375] resulted in: stable assay Renilla, run 1 = 8271; stable assay firefly, run 1 = 4.79e5; inactive.
Silencing of CG44085 [DRSC02922] gave: stable siRNA reporter change reporter ratio raised past the hit cutoff; stable assay Renilla, run 1 = 6235; stable assay firefly, run 1 = 1.92e5; inactive.
Against CG44085 [DRSC23040] the deposit lists stable assay Renilla, run 1 = 6699; stable assay firefly, run 1 = 3.98e5; inactive.
Silencing of Pcf11 (Pcf11 cleavage and polyadenylation factor subunit) [DRSC05983] gave: stable siRNA reporter change reporter ratio raised past the hit cutoff; stable assay Renilla, run 1 = 10658; stable assay firefly, run 1 = 3.54e5; inactive.
Pcf11 (Pcf11 cleavage and polyadenylation factor subunit) [DRSC23350] showed miRNA reporter change reporter ratio lowered past the hit cutoff; active.
With knock-down of CG17030 [DRSC08503], the record shows stable assay Renilla, run 1 = 6815; stable assay firefly, run 1 = 4.60e5; inactive.

Sorted by “stable assay firefly, run 1” (highest first): some entries from above
CG14072 [DRSC02375] | stable assay Renilla, run 1 = 8271; stable assay firefly, run 1 = 4.79e5; Outcome = inactive
CG31776 [DRSC00716] | stable assay Renilla, run 1 = 7471; stable assay firefly, run 1 = 4.47e5; Outcome = inactive

The listing continues:
Depletion of CG15027 [DRSC19608] resulted in: stable assay Renilla, run 1 = 5378; stable assay firefly, run 1 = 3.55e5; inactive.
With knock-down of Ir94e (Ionotropic receptor 94e) [DRSC15229] the results were stable assay Renilla, run 1 = 4536; stable assay firefly, run 1 = 3.97e5; inactive.
CG30458 [DRSC06660] showed stable assay Renilla, run 1 = 4303; stable assay firefly, run 1 = 4.57e5; inactive.
With knock-down of jdp [DRSC16975] the results were stable assay Renilla, run 1 = 7755; stable assay firefly, run 1 = 4.84e5; inactive.
TrxT (Thioredoxin T) [DRSC22182] showed stable siRNA reporter change reporter ratio raised past the hit cutoff; stable assay Renilla, run 1 = 6418; stable assay firefly, run 1 = 1.87e5; inactive.
Against TrxT (Thioredoxin T) [DRSC23117], the values are stable assay Renilla, run 1 = 4551; stable assay firefly, run 1 = 3.07e5; inactive.
